# Experimental data: patent US20250325517A1, “ORAL DOSAGE FORMS OF ELRAGLUSIB” (Actuate Therapeutics, Inc., priority 2022, published 2025)
# At least one read-out could not be matched to a standard name with certainty.
# Experiment: Phase 1 crossover PK study: oral solution fed/fasted vs IV infusion in healthy subjects
# Type: in vivo
# Settings: human
# Method: This pharmacokinetic (PK) study in healthy subjects was conducted to characterize and compare the PK parameters in plasma following a single intravenous (IV) dose of Elraglusib Injection, Elraglusib Oral Solution after fasting, and Elraglusib Oral Solution after a high-fat meal (fed). The study was intended to assess the potential feasibility of an oral formulation of elraglusib based on systemic exposure being within the biologically active range. In clinical studies conducted to date, elraglusib Injection (10 mg/mL) is administered IV once or twice per week over multiple hours, which requires a significant amount of time and resources by both patients and site personnel. […] See Example 3 above.
# The route of administration is by IV infusion after diluting elraglusib for injection with 0.9% Sodium Chloride Injection.
# It is a clear, red solution, free of visible particulate matter and a low bioburden liquid dosage form that is self-preserving against microbial growth.
# Subjects received a single 3.3 mg/kg dose of each of the following in a randomly assigned order separated by a 2-week period.
# During the study, the high fat meal was administered over a period of under 30 minutes (in almost all cases, 28 minutes). […]
# PK parameters including AUC, Cmax, Tmax, and t1/2 were analyzed by standard non-compartmental analysis (NCA) methods following each of the elraglusib doses. […]
smiles,measurement,value
"Cn1cc(C2=C(c3coc4ccc(F)cc34)C(=O)NC2=O)c2cc3c(cc21)OCO3 [elraglusib, 3-(5-fluorobenzofuran-3-yl)-4-(5-methyl-5H-[1,3]dioxolo[4,5-f]indol-7-yl)-1H-pyrrole-2,5-dione]",delay of median time to reach Cmax with meal,3 h
